# The other results are listed elsewhere or left out.
# B1: PX14343E-bfa-545-24-545 (Bacteroides fragilis) (protein)
# chain: LDRYPQEELSDGSFWKTPDDANKVVSDLYGYLSTWDQDNDINSDNATMGIKWAAGNVSKGIYDPADQGWSGDYANVRQCNLILSKIDEIPDYPEADKTKALGQVYFFRAYIYFNLIRSFGDVPYIDKPLDLKDMEGITRMPRAEVYEKIMADFDKAIAALPTEWGASDYGRVTKGAAMAMKARAALYYGNWDTAATEAKNVMDLGLYELYDKDNTGKYAELFWEKADGCDEFILVTQFNYPDKTHYLMGWECFPTKGWGGMNPTQSLVDAFEDSEGAPISKSKIYDPTDPFKNRDPRLEVDILHDGEEMYGVTIKVAPLASSGSTGINQHNDATETGYYGQKWLDPSLDPLSDGWNMGKDWVHIRYAEVLLTYAEAKNELQGLDPEAFDAVNQVRRRVGMPELQNTDPSKPTYCATQDDLRQRIRNEWRVEFCLEGGKRMWDIRRWGIAKDVLNAPFEGLKYKIVDNPNDPDKKVDGGKMCILYQGDPIILSGSRYSDNNYLFPVPQSEIDLNPALTQNPGY
# Key:
# Test in all cases: glycan array binding signal (z-score within array); higher = stronger binding
# Conditions in all cases: glycan notation: IUPAC condensed, linker removed
# [1] = molecular target: Neu5Ac(a2-3)Gal(b1-4)GlcNAc(b1-2)[Neu5Ac(a2-3)Gal(b1-4)GlcNAc(b1-4)]Man(a1-3)[GlcNAc(b1-4)][Neu5Ac(a2-3)Gal(b1-4)GlcNAc(b1-4)Man(a1-6)]Man(b1-4)GlcNAc(b1-4)GlcNAc
# Summary of the method: (§1)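 The binding signal is a Z-score computed within each array. Data were drawn from 3228 arrays in the Consortium for Functional Glycomics database, restricted to those with a known protein sequence. Scores were averaged over arrays of the same protein sequence at different concentrations or buffers, and over linkers, and negative values can be taken as non-binding.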
# [2] = molecular target: Neu5Ac(a2-3)Gal(b1-4)GlcNAc(b1-2)[Neu5Ac(a2-3)Gal(b1-4)GlcNAc(b1-6)]Man(a1-6)[Neu5Ac(a2-3)Gal(b1-4)GlcNAc(b1-2)Man(a1-3)]Man(b1-4)GlcNAc(b1-4)GlcNAc
# Summary of the method: as §1
# [3] = molecular target: Neu5Ac(a2-3)Gal(b1-4)GlcNAc(b1-2)[Neu5Ac(a2-3)Gal(b1-4)GlcNAc(b1-6)]Man(a1-6)[Neu5Ac(a2-3)Gal(b1-4)GlcNAc(b1-2)Man(a1-3)][GlcNAc(b1-4)]Man(b1-4)GlcNAc(b1-4)GlcNAc
# Summary of the method: as §1
# [4] = molecular target: Neu5Ac(a2-3)Gal(b1-4)GlcNAc(b1-3)Gal
# Summary of the method: as §1
# [5] = molecular target: Neu5Ac(a2-3)Gal(b1-4)GlcNAc(b1-3)Gal(b1-3)GlcNAc
# Summary of the method: as §1
# [6] = molecular target: Neu5Ac(a2-3)Gal(b1-4)GlcNAc(b1-3)Gal(b1-4)GlcNAc
# Summary of the method: as §1
# [7] = molecular target: Neu5Ac(a2-3)Gal(b1-4)GlcNAc(b1-3)Gal(b1-4)GlcNAc(b1-2)Man(a1-3)[Neu5Ac(a2-3)Gal(b1-4)GlcNAc(b1-3)Gal(b1-4)GlcNAc(b1-2)Man(a1-6)]Man(b1-4)GlcNAc(b1-4)GlcNAc
# Summary of the method: as §1
# [8] = molecular target: Neu5Ac(a2-3)Gal(b1-4)GlcNAc(b1-3)Gal(b1-4)GlcNAc(b1-3)Gal(b1-4)GlcNAc
# Summary of the method: as §1
# [9] = molecular target: Neu5Ac(a2-3)Gal(b1-4)GlcNAc(b1-3)Gal(b1-4)GlcNAc(b1-3)Gal(b1-4)GlcNAc(b1-2)Man(a1-3)[Neu5Ac(a2-3)Gal(b1-4)GlcNAc(b1-3)Gal(b1-4)GlcNAc(b1-3)Gal(b1-4)GlcNAc(b1-2)Man(a1-6)]GalNAc
# Summary of the method: as §1
# [10] = molecular target: Neu5Ac(a2-3)Gal(b1-4)GlcNAc(b1-3)Gal(b1-4)GlcNAc(b1-3)GalNAc
# Summary of the method: as §1
# [11] = molecular target: Neu5Ac(a2-3)Gal(b1-4)GlcNAc(b1-3)Gal(b1-4)GlcNAc(b1-3)[Neu5Ac(a2-3)Gal(b1-4)GlcNAc(b1-3)Gal(b1-4)GlcNAc(b1-6)]GalNAc
# Summary of the method: as §1
# [12] = molecular target: Neu5Ac(a2-3)Gal(b1-4)GlcNAc(b1-3)Gal(b1-4)GlcNAc(b1-6)[Gal(b1-3)]GalNAc
# Summary of the method: as §1
# [13] = molecular target: Neu5Ac(a2-3)Gal(b1-4)GlcNAc(b1-3)Gal(b1-4)[Fuc(a1-3)]GlcNAc
# Summary of the method: as §1
# [14] = molecular target: Neu5Ac(a2-3)Gal(b1-4)GlcNAc(b1-3)GalNAc
# Summary of the method: as §1
# [15] = molecular target: Neu5Ac(a2-3)Gal(b1-4)GlcNAc(b1-3)[Neu5Ac(a2-3)Gal(b1-4)GlcNAc(b1-6)]GalNAc
# Summary of the method: as §1
# [16] = molecular target: Neu5Ac(a2-3)Gal(b1-4)GlcNAc(b1-6)GalNAc
# Summary of the method: as §1
# [17] = molecular target: Neu5Ac(a2-3)Gal(b1-4)GlcNAc(b1-6)[Gal(b1-3)]GalNAc
# Summary of the method: as §1
# [18] = molecular target: Neu5Ac(a2-3)Gal(b1-4)GlcNAc(b1-6)[Neu5Ac(a2-3)Gal(b1-3)]GalNAc
# Summary of the method: as §1
# [19] = molecular target: Neu5Ac(a2-3)Gal(b1-4)GlcNAc6S
# Summary of the method: as §1
# [20] = molecular target: Neu5Ac(a2-3)Gal(b1-4)[Fuc(a1-3)]GlcNAc
# Summary of the method: as §1
# [21] = molecular target: Neu5Ac(a2-3)Gal(b1-4)[Fuc(a1-3)]GlcNAc(b1-2)Man
# Summary of the method: as §1
# [22] = molecular target: Neu5Ac(a2-3)Gal(b1-4)[Fuc(a1-3)]GlcNAc(b1-3)Gal
# Summary of the method: as §1
# [23] = molecular target: Neu5Ac(a2-3)Gal(b1-4)[Fuc(a1-3)]GlcNAc(b1-3)Gal(b1-4)GlcNAc
# Summary of the method: as §1
# [24] = molecular target: Neu5Ac(a2-3)Gal(b1-4)[Fuc(a1-3)]GlcNAc(b1-3)Gal(b1-4)[Fuc(a1-3)]GlcNAc(b1-3)Gal(b1-4)[Fuc(a1-3)]GlcNAc
# Summary of the method: as §1
# [25] = molecular target: Neu5Ac(a2-3)Gal(b1-4)[Fuc(a1-3)]GlcNAc(b1-3)GalNAc
# Summary of the method: as §1
# [26] = molecular target: Neu5Ac(a2-3)Gal(b1-4)[Fuc(a1-3)]GlcNAc(b1-6)[Gal(b1-3)]GalNAc
# Summary of the method: as §1
# [27] = molecular target: Neu5Ac(a2-3)Gal(b1-4)[Fuc(a1-3)]GlcNAc(b1-6)[Neu5Ac(a2-3)Gal(b1-3)]GalNAc
# Summary of the method: as §1
# [28] = molecular target: Neu5Ac(a2-3)Gal(b1-4)[Fuc(a1-3)]GlcNAc6S
# Summary of the method: as §1
# [29] = molecular target: Neu5Ac(a2-3)Gal6S(b1-4)GlcNAc
# Summary of the method: as §1
# [30] = molecular target: Neu5Ac(a2-3)Gal6S(b1-4)[Fuc(a1-3)]GlcNAc
# Summary of the method: as §1
# Neu5Ac(a2-3)GalNAc = molecular target: Neu5Ac(a2-3)GalNAc
# Summary of the method: as §1
# [31] = molecular target: Neu5Ac(a2-3)GalNAc(b1-4)GlcNAc
# Summary of the method: as §1
# [32] = molecular target: Neu5Ac(a2-3)[GalNAc(b1-4)]Gal(b1-4)Glc
# Summary of the method: as §1
# [33] = molecular target: Neu5Ac(a2-3)[GalNAc(b1-4)]Gal(b1-4)GlcNAc
# Summary of the method: as §1
# [34] = molecular target: Neu5Ac(a2-3)[GalNAc(b1-4)]Gal(b1-4)GlcNAc(b1-3)GalNAc
# Summary of the method: as §1
# [35] = molecular target: Neu5Ac(a2-3)[Neu5Ac(a2-6)]GalNAc
# Summary of the method: as §1
# Neu5Ac(a2-6)Gal = molecular target: Neu5Ac(a2-6)Gal
# Summary of the method: as §1
binder,measurement,setting,value
B1,glycan array binding signal (z-score),[1],0.264
same,glycan array binding signal (z-score),[2],0.106
same,glycan array binding signal (z-score),[3],-0.794
same,glycan array binding signal (z-score),[4],0.173
same,glycan array binding signal (z-score),[5],0.111
same,glycan array binding signal (z-score),[6],-1.24
same,glycan array binding signal (z-score),[7],-0.2
same,glycan array binding signal (z-score),[8],-0.527
same,glycan array binding signal (z-score),[9],1.75
same,glycan array binding signal (z-score),[10],-0.04
same,glycan array binding signal (z-score),[11],-0.264
same,glycan array binding signal (z-score),[12],-0.414
same,glycan array binding signal (z-score),[13],-0.099
same,glycan array binding signal (z-score),[14],-0.056
same,glycan array binding signal (z-score),[15],-0.912
same,glycan array binding signal (z-score),[16],-0.59
same,glycan array binding signal (z-score),[17],-0.893
same,glycan array binding signal (z-score),[18],-0.773
same,glycan array binding signal (z-score),[19],-1.34
same,glycan array binding signal (z-score),[20],-0.12
same,glycan array binding signal (z-score),[21],-0.594
same,glycan array binding signal (z-score),[22],-0.954
same,glycan array binding signal (z-score),[23],-0.873
same,glycan array binding signal (z-score),[24],0.318
same,glycan array binding signal (z-score),[25],0.401
same,glycan array binding signal (z-score),[26],1.19
same,glycan array binding signal (z-score),[27],0.423
same,glycan array binding signal (z-score),[28],-0.633
same,glycan array binding signal (z-score),[29],-0.883
same,glycan array binding signal (z-score),[30],-0.423
same,glycan array binding signal (z-score),Neu5Ac(a2-3)GalNAc,-0.857
same,glycan array binding signal (z-score),[31],-0.015
same,glycan array binding signal (z-score),[32],-0.256
same,glycan array binding signal (z-score),[33],-0.263
same,glycan array binding signal (z-score),[34],0.285
same,glycan array binding signal (z-score),[35],-0.87
same,glycan array binding signal (z-score),Neu5Ac(a2-6)Gal,1.24

# No new results follow: an excerpt of the list.
binder,measurement,setting,value
B1,glycan array binding signal (z-score),[26],1.19
same,glycan array binding signal (z-score),[27],0.423
